Publication PMC5386674

By UniProt entry, the sequences of proteins in these tests, tags left out. Where a name states a change or a piece, a line headed by the entry shows the natural chain unless it says otherwise.
UniProt P97471: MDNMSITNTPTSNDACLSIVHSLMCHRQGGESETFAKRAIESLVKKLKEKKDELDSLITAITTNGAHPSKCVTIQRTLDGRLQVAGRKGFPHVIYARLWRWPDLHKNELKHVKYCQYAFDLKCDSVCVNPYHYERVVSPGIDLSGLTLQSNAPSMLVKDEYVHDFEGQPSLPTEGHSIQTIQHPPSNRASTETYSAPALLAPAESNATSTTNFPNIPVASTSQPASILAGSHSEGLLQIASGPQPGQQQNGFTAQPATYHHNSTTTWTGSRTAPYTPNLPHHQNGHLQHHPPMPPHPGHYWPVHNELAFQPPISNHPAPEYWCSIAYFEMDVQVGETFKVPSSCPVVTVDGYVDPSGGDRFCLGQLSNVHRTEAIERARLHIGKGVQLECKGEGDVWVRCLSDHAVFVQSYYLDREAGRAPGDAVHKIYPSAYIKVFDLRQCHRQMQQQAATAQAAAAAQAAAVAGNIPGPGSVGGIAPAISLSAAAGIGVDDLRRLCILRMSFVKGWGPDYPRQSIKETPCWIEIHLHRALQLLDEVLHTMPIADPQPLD

How the values were obtained:
[1] = molecular target: T1, murine Hyal-2, membrane-anchored target (pMyr) (murine) (UniProt O35632); assay: two-hybrid; Ras rescue-based cytoplasmic yeast two-hybrid (CytoTrap, Stratagene); Sos-tagged bait in the cytoplasm, myristoylated target on the membrane; growth of cdc25H yeast at 37°C on selective galactose plates
T1 sequence: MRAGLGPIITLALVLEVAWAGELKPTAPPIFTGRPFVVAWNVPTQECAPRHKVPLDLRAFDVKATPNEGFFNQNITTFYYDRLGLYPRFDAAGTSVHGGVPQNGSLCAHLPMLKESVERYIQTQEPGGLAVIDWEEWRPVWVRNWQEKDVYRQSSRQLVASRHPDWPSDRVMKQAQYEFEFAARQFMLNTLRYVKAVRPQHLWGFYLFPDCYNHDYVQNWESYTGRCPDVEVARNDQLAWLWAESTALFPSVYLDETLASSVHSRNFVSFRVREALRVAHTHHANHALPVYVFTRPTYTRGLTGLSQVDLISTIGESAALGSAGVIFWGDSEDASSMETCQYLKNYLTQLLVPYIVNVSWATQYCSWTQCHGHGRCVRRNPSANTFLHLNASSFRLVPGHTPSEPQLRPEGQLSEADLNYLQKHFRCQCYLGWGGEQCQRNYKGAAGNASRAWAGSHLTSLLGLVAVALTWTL

[2] = molecular target: T2, murine WWOX, Sos-tagged bait (pSos) (murine) (UniProt Q91WL8); assay: two-hybrid; competitive binding in the Ras rescue yeast two-hybrid: membrane-anchored Hyal-2 (target), constant amount of WWOX (bait), various amounts of Smad4 (competitor) in the cytoplasm; % colony growth at 37°C over 22°C
T2 sequence: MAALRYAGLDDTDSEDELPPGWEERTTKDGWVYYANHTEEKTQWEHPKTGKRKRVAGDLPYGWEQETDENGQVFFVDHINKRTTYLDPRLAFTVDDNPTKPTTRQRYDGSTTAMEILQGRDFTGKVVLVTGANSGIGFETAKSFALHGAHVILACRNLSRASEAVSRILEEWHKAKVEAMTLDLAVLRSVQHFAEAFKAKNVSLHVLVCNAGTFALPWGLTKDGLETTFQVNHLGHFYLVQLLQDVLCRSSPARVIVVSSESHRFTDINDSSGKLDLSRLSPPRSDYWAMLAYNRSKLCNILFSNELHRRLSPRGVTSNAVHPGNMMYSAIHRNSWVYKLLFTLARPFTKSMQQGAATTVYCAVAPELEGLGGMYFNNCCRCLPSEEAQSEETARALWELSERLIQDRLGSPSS

[3] = molecular target: ECFP-Smad4 (not stated (murine Smad4 cDNA cloned)) (UniProt P97471); assay: FRET or BRET; time-lapse tri-molecular FRET microscopy in DU145 cells transiently expressing ECFP-, EGFP- and DsRed-monomer-tagged proteins, stimulated with HA (25 μg/ml); FRETc

“WWOXww (the first WW domain of murine WWOX), Sos-tagged bait (domain or fragment)” was tested, and the binding [1] was “binds”.

For “Smad4 (competitor, expressed in the yeast cytoplasm) (from UniProt P97471)”, the binding [2] was “binds”.

B1: EGFP-WWOX (murine) (protein, UniProt Q91WL8 1-414)
chain: T2 sequence
B1 was tested, and the binding [3] was “binds”.

These are yes or no findings as the source states them, for the method shown. Binding can be weak; no strength is given. For part of these data: Tags and fused reporters may be left off the sequences shown. For part of these data: In cells and extracts the contact can be indirect.
